The values below come from paper doi:10.1101/2025.10.10.681325.

Assay [1] has as its target VapC12[F1,2], M-PFC bait fusion (M. tuberculosis) (UniProt P9WFA3). As to the kind of experiment: split reporter.
Assay [2] shares this target. As to the kind of experiment: split reporter. The source holds these as a separate data set.

Where two headings read alike, the source gives them in different places. Results are given in words; binding and its absence hold for the method and conditions named. Binding seen in cells or lysates may run through a third protein. Some results given as binding are weak or reduced against the parent protein; the word gives no strength.

In the case of “VapB12[F3], M-PFC prey fusion (from UniProt P9WJ53 1-75)”, the binding entry in assay [1] and in assay [2] was “binds” throughout.
